First the molecules themselves.
B1: il2ra_site2_3nfp_sap_32_mot_HHH_b1_04787_000000220_0001_23_40_H_._HHH_b1_07367_0001_0000100002_0000001_0_0001 (protein)
chain: SSSSDKHERYLEAALELIKHAIQAGDEESAREHLETVKLAAEDNNDEEIQRLVEELEEELRSSSS
B2: il2ra_site1_1z92_sap_17_mot_HHH_b1_01613_000000190_0001_1_15_H_._HHH_b2_04434_0001_0000200013_0000001_1_0001 (protein)
chain: SEEERVEEIARELGIPPEVIELLLKDLEAAEKLGIPPEHALKAIARVAEQMGDPDILKLAEVLLK
B3: il2ra_site2_2erj_normal_mot_6ec3e94b46d95805cdcdc10c0c108f03_0001_af2_000000040_0001_36_50_H_._HHH_b1_06242_af2_0001_0000100002_0000001_0 (protein)
chain: SSSSDELRKLYELANRILHLLARGDPEEARELIEEAQELAEELQSDTAKEILEFLERLARSSSSS
B4: il2ra_site1_2b5i_normal_mot_HHH_b1_08157_af2_000000055_0001_42_55_H_._HHH_b1_04993_af2_0001_0000200013_0000001_0_af2pred_dldesign_0_af2pred (protein)
chain: SSSSSSDEVHDLALEAFRLKRAGKKEEAKKKLEEALKLAKEAKDEKLIAEVTYLLESLSSSSSSS
B5: il2ra_site1_3nfp_sap_17_mot_HHH_b1_07644_af2_000000110_0001_40_57_H_._HEEHE_2706_0001_0000400054_0000001_0_0001_af2pred_0001_af2pred_1_swapped (protein)
chain: SSSSDALEFVEELAEKAFENNDKFQLRALYKLLREALEKTGNPEAEEVLEKVEELLRELQSSSSS
B6: il2ra_site1_2b5i_sap_10_mot_037013d2e522ae4c653b5903b31fcd5c_0001_000000014_0001_34_49_H_._HHH_b1_07018_0001_0000300020_0000001_0_0001_af2pred_0001_af2pred (protein)
chain: SSSSSDYQEQILELIEEADKLDKNGNPEEARKVLEEALELAEEANNPSLARSIRLMLKLLSSSSS
B7: il2ra_site2_3nfp_normal_mot_ce0e691d864d74cc0dee145e42b7b696_0001_1_af2_000000051_0001_34_49_H_._HHH_b1_03816_af2_0001_0000100005_0000001_1 (protein)
chain: SSSDQELVEVLHQLFRALEEGDEELIEELRRELEELAKKVEDESLRQFAEQLLAAAALFLESSSS
B8: il2ra_site2_3nfp_sap_16_mot_HHH_b2_06150_000000217_0001_39_53_H_._2e137d6699d8fa890198131d25759a54_0001_0001_0000200025_0000001_1_0001 (protein)
chain: SSSSSKAEEYLEVALELLEELVELGDEELIRSALEVVEAMAESHNDEEAQELVEEVKKEFSSSSS
B9: il2ra_site1_3nfp_sap_19_mot_HHH_b2_01814_000000033_0001_1_16_H_._HHH_b2_06406_af2_0001_0000200017_0000001_1_0001 (protein)
chain: DKEEVAEAVEKLLEFAANLDSVEVSVHNGTLHVTVEGDDSQARAALKIAERAAKRFGIEVEVETE
B10: il2ra_site2_2erj_sap_16_mot_c2bf78bdce995293a161f7082e24b401_0001_af2_000000082_0001_17_32_H_._ee6f2efe1cc829cadc28c075f8154135_0001_1_0001_0000200036_0000001_0 … (protein)
chain: SSSDEEVERFAEEVVEELRELVEKGDQEEFNRLATRVIEFVRQHNNDRALYLLWEIMRLNVSSSS
B11: il2ra_site1_1z92_sap_11_mot_add8a691351788dd45ba4deda1838316_0001_1_000000225_0001_37_51_H_._HHH_b1_04072_0001_0000300033_0000001_0_0001_af2pred_0001_af2pred (protein)
chain: SSSSDLEHQAKLIVRAAVEAAGLSEEQEEELQKVARELVERGLSFEEIFRELDRVALELNSSSSS
B12: il2ra_site2_3nfp_normal_mot_49a7c9051cacde34b31d84fabeb7f3ea_0001_af2_000000030_0001_39_52_H_._HHH_b2_06514_af2_0001_0000100001_0000001_1 (protein)
chain: SSSSDEEEKELEELQELLKRLKEEGDRFELLRVLVRASQLAARLGDEEAVRRELELYEELASSSS
B13: il2ra_site2_2erj_normal_mot_HHH_b1_05749_af2_000000086_0001_23_39_H_._HHH_eva_0415_0001_0000100012_0000001_0 (protein)
chain: SSSEELRIAYKLAVRLLHFEARGLSEEQLEEIARKIEEEAEKRLDPAVSEQLRELLEEFVEEASS
B14: il2ra_site2_2erj_normal_mot_HHH_b1_00612_000000025_0001_42_56_H_._HHH_b2_02466_0001_0001000046_0000001_0 (protein)
chain: SSSSSDEEEVFQLVSELAARLAHVDEEEARKLLEEAEELARELGNEILERYLELAHREASSSSSS
B15: il2ra_site1_2b5i_sap_12_mot_ab7d8a294c6210bf73dc5e3fe74162db_0001_af2_000000011_0001_1_14_H_._HHH_b2_05214_af2_0001_0000100003_0000001_0_0001_af2pred_0001_af2pr … (protein)
chain: SSSSSELAEEALELLREADELFKNGDEEEAEKVLEEAERIAEEGGNRSLLKLLRSALRLIRSSSS
B16: il2ra_site2_3nfp_normal_mot_HHH_b2_06150_000000217_0001_39_53_H_._HHH_b1_06685_0001_0000300024_0000001_0 (protein)
chain: SSSSDEEERRVKELLERVEEAIEKGDEELAQRLLAEATHIVFKNRNSELFYLIAELLLELRSSSS
B17: il2ra_site1_1z92_sap_15_mot_HHH_b2_05498_000000253_0001_19_35_H_._HHH_b1_00069_0001_0001500068_0000001_0_0001_af2pred_0001_af2pred_1 (protein)
chain: SEEEEHIRELIEQIPDPELAEAIKKDFEQALERGIPPERVVRALLRAARLDGDPHAEELLEKALR
B18: il2ra_site1_1z92_normal_mot_3d621733409fa4d2bc95fa1761ba6d8e_0001_af2_000000005_0001_1_12_H_._HHH_b2_07461_af2_0001_0000100001_0000001_0_af2pred_0001_af2pred (protein)
chain: SSSSSDNAKKVARLLKELQEAFENGDEEEARRLAEELLELAEENGSKSLARTAELVLRELSSSSS
B19: il2ra_site1_1z92_normal_mot_HHH_b1_07526_000000113_0001_40_57_H_._a65054f6448b340cf30ff5d9204e8553_0001_0001_0000100005_0000001_0 (protein)
chain: DEEEERVKEEIRRKNPRVVRNLEIAERAARRLGAPPEEILKALIRFAEFLGDPEAAELLQEVLEK

This is one part of the list.

The target of the experiment is il2ra, P01589. Kind of experiment: yeast display titration.
As for B1, the “apparent Kd” value is “inactive: no binding seen”.
To B2 belongs “inactive: no binding seen”; to B3, “inactive: no binding seen”; to B4, “inactive: no binding seen”.
B5: the “apparent Kd” value is “inactive: no binding seen”.
As for B6, the “apparent Kd” value is “inactive: no binding seen”.
Then B7, with “inactive: no binding seen”; and B8, with “inactive: no binding seen”.
Then B9, with “inactive: no binding seen”; and B10, with “inactive: no binding seen”.
B11: the “apparent Kd” value was “inactive: no binding seen”.
To B12 belongs “inactive: no binding seen”; to B13, “inactive: no binding seen”; to B14, “inactive: no binding seen”.
To B15 belongs “inactive: no binding seen”; to B16, “inactive: no binding seen”.
As to B17, the “apparent Kd” value was “inactive: no binding seen”.
For the molecule B18, the “apparent Kd” value is “inactive: no binding seen”.
Then B19, with “inactive: no binding seen”.

The values are drawn from article PMC10163288.
